Source: the supplement of paper PMC10849652
The other results are listed elsewhere or left out.

Protein sequences, listed by entry. Tags and fused reporters are not part of them. Lines headed by an entry give the natural chain unless they say otherwise; changes in a name come on top.
UniProt Q9BYX4: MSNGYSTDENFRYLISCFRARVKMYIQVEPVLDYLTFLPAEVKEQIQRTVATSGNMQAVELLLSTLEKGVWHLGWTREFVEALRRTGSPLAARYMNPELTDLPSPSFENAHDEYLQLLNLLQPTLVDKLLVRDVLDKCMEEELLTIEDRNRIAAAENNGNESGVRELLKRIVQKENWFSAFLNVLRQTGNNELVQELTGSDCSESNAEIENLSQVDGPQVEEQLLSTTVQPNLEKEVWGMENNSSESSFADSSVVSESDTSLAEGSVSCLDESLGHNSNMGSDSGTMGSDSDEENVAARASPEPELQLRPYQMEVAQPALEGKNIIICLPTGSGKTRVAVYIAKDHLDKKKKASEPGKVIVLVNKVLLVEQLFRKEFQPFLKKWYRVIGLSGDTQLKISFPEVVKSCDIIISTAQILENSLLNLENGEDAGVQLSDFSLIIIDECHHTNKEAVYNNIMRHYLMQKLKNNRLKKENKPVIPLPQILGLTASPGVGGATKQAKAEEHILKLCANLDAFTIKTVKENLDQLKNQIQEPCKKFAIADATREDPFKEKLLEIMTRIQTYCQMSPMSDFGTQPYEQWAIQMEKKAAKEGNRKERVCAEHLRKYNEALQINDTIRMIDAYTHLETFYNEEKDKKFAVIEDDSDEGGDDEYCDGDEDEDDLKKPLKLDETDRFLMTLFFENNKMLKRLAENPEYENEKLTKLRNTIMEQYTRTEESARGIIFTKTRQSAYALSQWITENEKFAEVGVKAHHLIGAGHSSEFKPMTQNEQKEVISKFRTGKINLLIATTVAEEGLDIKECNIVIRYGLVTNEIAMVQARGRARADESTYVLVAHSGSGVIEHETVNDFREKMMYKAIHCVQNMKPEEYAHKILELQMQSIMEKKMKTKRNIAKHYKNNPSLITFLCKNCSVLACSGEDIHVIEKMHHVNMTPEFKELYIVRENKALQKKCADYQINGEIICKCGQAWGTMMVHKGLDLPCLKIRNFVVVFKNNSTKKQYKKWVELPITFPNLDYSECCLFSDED
UniProt Q9NRY2: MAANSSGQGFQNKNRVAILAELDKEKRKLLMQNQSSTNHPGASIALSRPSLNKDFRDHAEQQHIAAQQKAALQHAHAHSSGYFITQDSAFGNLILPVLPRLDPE
UniProt Q9Y2F5: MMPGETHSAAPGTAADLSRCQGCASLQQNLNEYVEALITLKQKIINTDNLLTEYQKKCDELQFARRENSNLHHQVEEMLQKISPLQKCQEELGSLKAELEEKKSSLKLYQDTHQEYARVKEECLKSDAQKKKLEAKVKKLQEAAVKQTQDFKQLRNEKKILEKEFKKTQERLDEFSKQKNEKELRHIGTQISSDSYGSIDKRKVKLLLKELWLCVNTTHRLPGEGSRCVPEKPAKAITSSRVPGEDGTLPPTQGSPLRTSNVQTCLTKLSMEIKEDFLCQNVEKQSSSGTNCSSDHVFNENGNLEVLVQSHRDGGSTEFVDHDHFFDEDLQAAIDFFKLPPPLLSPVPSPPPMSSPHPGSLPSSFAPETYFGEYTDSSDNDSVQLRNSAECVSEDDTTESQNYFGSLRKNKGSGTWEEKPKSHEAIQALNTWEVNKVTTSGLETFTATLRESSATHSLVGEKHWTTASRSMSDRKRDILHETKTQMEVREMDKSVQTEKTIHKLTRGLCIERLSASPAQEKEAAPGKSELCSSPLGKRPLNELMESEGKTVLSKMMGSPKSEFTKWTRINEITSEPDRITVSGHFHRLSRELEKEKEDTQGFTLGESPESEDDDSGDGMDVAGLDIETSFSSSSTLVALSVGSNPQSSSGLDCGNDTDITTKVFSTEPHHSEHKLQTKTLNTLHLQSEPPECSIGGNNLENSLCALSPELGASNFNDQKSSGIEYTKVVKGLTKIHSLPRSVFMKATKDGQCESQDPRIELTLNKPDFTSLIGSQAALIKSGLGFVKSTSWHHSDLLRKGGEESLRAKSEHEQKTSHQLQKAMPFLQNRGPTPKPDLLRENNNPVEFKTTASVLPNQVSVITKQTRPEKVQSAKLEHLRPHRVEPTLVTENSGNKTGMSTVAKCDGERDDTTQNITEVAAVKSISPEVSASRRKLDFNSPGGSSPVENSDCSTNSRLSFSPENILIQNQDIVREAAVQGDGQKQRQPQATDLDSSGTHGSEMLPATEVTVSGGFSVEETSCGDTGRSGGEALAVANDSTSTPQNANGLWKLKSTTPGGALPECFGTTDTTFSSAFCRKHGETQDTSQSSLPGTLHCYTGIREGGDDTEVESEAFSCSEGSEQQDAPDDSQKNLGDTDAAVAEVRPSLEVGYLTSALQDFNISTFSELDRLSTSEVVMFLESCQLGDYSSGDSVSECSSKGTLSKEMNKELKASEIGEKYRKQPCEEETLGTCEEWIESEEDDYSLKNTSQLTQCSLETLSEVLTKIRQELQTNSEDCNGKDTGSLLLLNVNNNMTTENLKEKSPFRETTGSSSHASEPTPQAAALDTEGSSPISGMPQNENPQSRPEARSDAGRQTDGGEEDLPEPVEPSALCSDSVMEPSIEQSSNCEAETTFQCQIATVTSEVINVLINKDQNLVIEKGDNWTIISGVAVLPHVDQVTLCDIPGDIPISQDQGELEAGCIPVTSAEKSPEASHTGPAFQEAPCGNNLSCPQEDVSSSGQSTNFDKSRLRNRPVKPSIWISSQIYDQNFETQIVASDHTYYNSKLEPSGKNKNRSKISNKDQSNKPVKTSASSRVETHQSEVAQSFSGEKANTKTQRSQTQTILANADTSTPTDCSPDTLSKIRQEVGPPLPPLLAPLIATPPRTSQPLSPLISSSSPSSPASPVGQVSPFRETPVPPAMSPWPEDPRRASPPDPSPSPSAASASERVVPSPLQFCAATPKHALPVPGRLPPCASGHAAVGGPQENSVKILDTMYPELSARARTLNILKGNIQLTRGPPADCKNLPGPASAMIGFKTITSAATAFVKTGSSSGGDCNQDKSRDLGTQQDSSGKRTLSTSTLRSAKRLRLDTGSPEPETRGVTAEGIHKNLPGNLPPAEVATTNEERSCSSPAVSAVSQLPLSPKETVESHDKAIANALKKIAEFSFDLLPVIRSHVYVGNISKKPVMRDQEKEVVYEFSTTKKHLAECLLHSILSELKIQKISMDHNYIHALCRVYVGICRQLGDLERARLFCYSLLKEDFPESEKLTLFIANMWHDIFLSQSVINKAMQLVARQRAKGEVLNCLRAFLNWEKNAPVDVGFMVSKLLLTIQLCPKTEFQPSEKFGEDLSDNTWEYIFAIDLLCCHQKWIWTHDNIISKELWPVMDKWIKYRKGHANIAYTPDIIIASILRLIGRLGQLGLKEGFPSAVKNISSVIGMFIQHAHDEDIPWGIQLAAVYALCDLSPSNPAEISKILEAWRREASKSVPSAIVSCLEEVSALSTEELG
UniProt Q92598: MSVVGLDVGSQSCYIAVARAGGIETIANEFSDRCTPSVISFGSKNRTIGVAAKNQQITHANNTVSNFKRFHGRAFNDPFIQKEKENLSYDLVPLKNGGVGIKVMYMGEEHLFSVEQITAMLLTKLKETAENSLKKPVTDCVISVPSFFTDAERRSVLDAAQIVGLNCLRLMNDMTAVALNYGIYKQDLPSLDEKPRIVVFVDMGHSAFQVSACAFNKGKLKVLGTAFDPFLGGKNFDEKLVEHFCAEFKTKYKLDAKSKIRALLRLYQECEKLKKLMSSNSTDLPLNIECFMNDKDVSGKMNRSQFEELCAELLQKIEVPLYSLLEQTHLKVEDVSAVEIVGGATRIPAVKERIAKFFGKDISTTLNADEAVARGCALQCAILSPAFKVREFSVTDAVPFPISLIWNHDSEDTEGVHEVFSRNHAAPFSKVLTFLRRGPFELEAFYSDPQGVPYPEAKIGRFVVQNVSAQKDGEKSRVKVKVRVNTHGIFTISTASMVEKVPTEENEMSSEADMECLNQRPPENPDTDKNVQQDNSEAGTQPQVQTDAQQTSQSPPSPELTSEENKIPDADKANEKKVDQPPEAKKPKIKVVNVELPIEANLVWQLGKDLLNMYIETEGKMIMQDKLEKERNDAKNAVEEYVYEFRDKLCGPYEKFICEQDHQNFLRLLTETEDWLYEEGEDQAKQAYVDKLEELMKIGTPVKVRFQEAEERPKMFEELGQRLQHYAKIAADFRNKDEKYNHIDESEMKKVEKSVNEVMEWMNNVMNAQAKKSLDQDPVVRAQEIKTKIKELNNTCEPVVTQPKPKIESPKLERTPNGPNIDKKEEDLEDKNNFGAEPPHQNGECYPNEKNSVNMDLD
UniProt Q13261, whole entry, looked up: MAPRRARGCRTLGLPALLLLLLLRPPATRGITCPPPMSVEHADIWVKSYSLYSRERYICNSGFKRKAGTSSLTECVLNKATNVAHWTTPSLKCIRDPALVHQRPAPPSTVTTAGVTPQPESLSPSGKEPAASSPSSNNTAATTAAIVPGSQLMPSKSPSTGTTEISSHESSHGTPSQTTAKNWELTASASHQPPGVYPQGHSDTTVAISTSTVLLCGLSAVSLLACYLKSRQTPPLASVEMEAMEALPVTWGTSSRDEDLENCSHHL
UniProt O14879: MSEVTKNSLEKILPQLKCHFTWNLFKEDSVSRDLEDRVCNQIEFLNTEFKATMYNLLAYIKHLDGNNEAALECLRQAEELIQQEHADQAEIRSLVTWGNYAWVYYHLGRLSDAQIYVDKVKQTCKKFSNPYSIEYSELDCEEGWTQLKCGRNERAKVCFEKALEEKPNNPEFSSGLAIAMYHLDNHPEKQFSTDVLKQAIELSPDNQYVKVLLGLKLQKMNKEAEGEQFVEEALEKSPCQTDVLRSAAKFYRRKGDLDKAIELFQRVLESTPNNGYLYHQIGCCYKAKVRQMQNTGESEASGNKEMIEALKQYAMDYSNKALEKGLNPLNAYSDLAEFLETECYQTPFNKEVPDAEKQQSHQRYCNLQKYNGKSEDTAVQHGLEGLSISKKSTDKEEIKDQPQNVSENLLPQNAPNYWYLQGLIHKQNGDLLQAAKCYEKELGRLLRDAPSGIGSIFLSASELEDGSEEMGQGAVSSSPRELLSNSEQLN
UniProt P83110, whole entry, looked up: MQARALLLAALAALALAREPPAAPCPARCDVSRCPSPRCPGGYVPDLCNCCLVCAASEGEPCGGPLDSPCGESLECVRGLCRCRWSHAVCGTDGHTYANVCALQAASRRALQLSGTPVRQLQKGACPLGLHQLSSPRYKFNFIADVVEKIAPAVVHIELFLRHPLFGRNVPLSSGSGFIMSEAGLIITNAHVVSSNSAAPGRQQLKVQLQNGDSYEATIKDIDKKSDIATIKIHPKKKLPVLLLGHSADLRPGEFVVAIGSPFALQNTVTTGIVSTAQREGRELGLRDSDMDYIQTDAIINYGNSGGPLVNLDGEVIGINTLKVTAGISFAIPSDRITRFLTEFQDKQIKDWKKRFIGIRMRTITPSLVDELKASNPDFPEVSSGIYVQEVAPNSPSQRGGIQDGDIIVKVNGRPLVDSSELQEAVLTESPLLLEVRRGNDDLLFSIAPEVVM
UniProt Q9NRR6: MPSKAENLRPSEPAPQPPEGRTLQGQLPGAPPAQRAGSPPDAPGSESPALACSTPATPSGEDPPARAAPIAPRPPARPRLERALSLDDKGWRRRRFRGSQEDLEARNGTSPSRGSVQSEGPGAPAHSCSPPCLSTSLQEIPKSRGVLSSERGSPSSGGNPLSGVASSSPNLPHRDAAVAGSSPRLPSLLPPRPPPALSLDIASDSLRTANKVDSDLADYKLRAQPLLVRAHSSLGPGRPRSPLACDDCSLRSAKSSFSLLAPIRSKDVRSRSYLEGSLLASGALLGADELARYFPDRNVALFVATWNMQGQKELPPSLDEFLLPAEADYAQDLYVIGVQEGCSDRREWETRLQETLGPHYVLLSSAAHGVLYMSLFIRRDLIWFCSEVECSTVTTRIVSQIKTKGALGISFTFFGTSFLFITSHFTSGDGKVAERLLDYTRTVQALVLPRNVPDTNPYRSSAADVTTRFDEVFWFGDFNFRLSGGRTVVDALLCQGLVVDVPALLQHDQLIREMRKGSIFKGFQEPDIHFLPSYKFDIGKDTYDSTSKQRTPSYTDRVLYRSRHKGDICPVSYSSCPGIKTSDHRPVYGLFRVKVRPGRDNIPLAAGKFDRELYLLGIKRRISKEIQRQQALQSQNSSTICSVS
UniProt P58166: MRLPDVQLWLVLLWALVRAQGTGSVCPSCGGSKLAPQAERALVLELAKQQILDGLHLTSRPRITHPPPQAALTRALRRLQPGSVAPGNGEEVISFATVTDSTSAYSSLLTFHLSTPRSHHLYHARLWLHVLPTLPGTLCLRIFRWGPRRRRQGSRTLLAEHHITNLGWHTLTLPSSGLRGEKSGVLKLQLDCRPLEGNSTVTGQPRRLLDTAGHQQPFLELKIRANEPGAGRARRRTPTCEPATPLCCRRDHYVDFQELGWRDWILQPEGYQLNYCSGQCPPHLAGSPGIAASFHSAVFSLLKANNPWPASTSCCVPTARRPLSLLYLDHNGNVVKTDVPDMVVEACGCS
IGKV3D-7, A0A0C4DH55, UniProt A0A0C4DH55, whole entry, looked up: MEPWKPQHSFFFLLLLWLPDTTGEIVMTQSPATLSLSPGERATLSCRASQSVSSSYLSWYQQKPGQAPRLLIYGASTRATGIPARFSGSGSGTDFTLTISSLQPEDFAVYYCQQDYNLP

Assays:
Experiment in all cases: log2 fold change, soluble protein after heating vs DMSO (PISA); higher = thermal stabilisation; K562 lysate, 10 uM; active = over 0.2 and 3.5 SD of the protein, either way, in both replicates (recomputed)
[1] = compound: CS(=O)(=O)CCNCc1ccc(-c2ccc3ncnc(Nc4ccc(OCc5cccc(F)c5)c(Cl)c4)c3c2)o1 [lapatinib]
How it was run: (§1)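 K562 pellets were dounce-homogenised in PBS pH 7.4 containing 1 mM MgCl2, and the crude extract, at 1 mg/mL protein, was exposed to 10 μM compound for 30 min. Aliquots were heated for 3 min across 48°C-58°C, pooled, brought to 0.5% NP-40 at 4°C and spun at 21,000xg for 90 min, with the supernatant taken as soluble protein. TMTpro 16plex LC-MS/MS with equalised channel sums quantified that protein. Values are log-two fold changes in thermal stability relative to solvent controls, taken from duplicates.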

[2] = compound: CS(=O)(=O)N1CCN(Cc2cc3nc(-c4cccc5[nH]ncc45)nc(N4CCOCC4)c3s2)CC1 [pictilisib]
How it was run: as §1

[3] = compound: C[C@H](C1=CC=C(C=C1)C(=O)NC2=C3C=CNC3=NC=C2)N
How it was run: as §1

[4] = compound: C[C@H](Nc1ncnc2nc[nH]c12)c1cc2cccc(Cl)c2c(=O)n1-c1ccccc1 [duvelisib]
How it was run: as §1

[5] = compound: Cc1cc(Nc2cc(CN3CCOCC3)c3nc(C)c(Cc4ccc(Cl)cc4F)n3n2)n[nH]1 [gandotinib]
How it was run: as §1

[6] = compound: Cc1cc(Nc2cc(N3CCN(C)CC3)nc(Sc3ccc(NC(=O)C4CC4)cc3)n2)n[nH]1 [tozasertib]
How it was run: as §1

[7] = compound: Cc1ccc(NC(=O)c2ccc(CN3CC[C@H](N(C)C)C3)c(C(F)(F)F)c2)cc1Nc1nccc(-c2cncnc2)n1 [bafetinib]
How it was run: as §1

[8] = compound: Cc1cccc(CC(=O)N2CCc3c2ccc(-c2cn(C)c4ncnc(N)c24)c3F)n1
How it was run: as §1

[9] = compound: C[C@@H](Oc1cc(-c2cnn(C3CCNCC3)c2)cnc1N)c1c(Cl)ccc(F)c1Cl [crizotinib]
How it was run: as §1

[10] = compound: Cc1ccc(-n2nc(C(C)(C)C)cc2NC(=O)Nc2ccc(OCCN3CCOCC3)c3ccccc23)cc1 [doramapimod]
How it was run: as §1

Measured: log2 fold change

INPP5F (UniProt Q9Y2H2)
inactive: [1] -0.231 | [2] -0.076 | [3] -0.39 | [4] 0.08 | [5] 0.261 | [6] -0.207 | [7] -0.421 | [8] 0.263

IFIH1 (UniProt Q9BYX4)
inactive: [1] -0.034 | [2] -0.024 | [3] -0.005 | [5] 0.106 | [6] 0.063 | [7] -0.113 | [8] 0.236

INO80C isoform 4 (UniProt Q6PI98)
inactive: [1] 0.01 | [2] -0.188 | [4] 0.024 | [7] -0.061

IMP4 (UniProt Q96G21)
inactive: [1] -0.03 | [9] -0.099 | [3] 0.061 | [5] -0.067 | [10] 0.097 | [8] 0.078

IGHG1 (UniProt P01857)
inactive: [2] 0.622 | [9] 0.376 | [3] 0.454 | [4] -0.022 | [5] 0.43 | [10] 0.413 | [7] -0.305 | [8] 0.199

INIP (UniProt Q9NRY2)
inactive: [1] 0.094 | [4] 0.287

ID1 (UniProt P41134)
inactive: [2] -0.031 | [9] 0.025 | [3] 0.091 | [4] -0.056 | [5] 0.017 | [10] -0.033 | [7] 0.063 | [8] -0.005

HYOU1, A0A494C039
inactive: [1] -0.008 | [2] 0.097 | [3] 0.145 | [4] 0.023 | [5] -0.175 | [6] 0.055 | [7] -0.133 | [8] 0.125

IFT57 (UniProt Q9NWB7)
inactive: [1] 0.076 | [9] -0.104 | [4] -0.031 | [6] 0.102 | [10] 0.029

HUWE1, A0A087X1S3
inactive: [1] -0.123 | [2] 0.081 | [3] -0.03 | [4] 0.225 | [5] 0.06 | [6] -0.167 | [7] -0.027 | [8] 0.107

HVCN1 (UniProt Q96D96)
inactive: [1] 0.233 | [2] 0.018 | [3] -0.327 | [5] 0.362 | [6] 0.222 | [7] 0.013 | [8] 0.033

IGLL5 (UniProt B9A064)
inactive: [1] -0.058 | [9] 0.262 | [3] 0.123 | [5] -0.051 | [6] 0.88 | [10] 0.101 | [8] 0.483

IFT81 (UniProt Q8WYA0)
inactive: [2] 0.054 | [9] -0.076 | [3] 0.282 | [5] -0.276 | [10] -0.079 | [7] -0.142 | [8] -0.046

ICE1 (UniProt Q9Y2F5)
inactive: [2] -0.19 | [9] 0.053 | [3] 0.032 | [4] 0.135 | [5] -0.042 | [6] 0.095 | [10] -0.116 | [7] -0.101 | [8] 0.013

HSPH1 isoform 2 (UniProt Q92598)
inactive: [1] -0.015 | [2] -0.115 | [4] 0 | [6] -0.151 | [7] 0.173

IL15RA (UniProt Q13261)
inactive: [9] 0.04 | [10] 0.061

IGLC3 (UniProt P0DOY3)
inactive: [2] 0.35 | [3] 0.31 | [4] 0.506 | [5] -0.386 | [7] -0.135 | [8] 0.439

ICAM4 (UniProt Q14773)
inactive: [2] 0.051 | [3] -0.077 | [4] 0.04 | [5] 0.042 | [6] 0.126 | [7] 0.024 | [8] 0.128

Fetched one by one from the list above (three):
IMP4 (UniProt Q96G21)
inactive: [1] -0.03 | [9] -0.099 | [3] 0.061 | [5] -0.067 | [10] 0.097 | [8] 0.078

IL15RA (UniProt Q13261)
inactive: [9] 0.04 | [10] 0.061

IFT57 (UniProt Q9NWB7)
inactive: [1] 0.076 | [9] -0.104 | [4] -0.031 | [6] 0.102 | [10] 0.029

(list continues)

IFIT3 (UniProt O14879)
inactive: [9] 0.006 | [4] 0.082 | [6] 0.03 | [10] -0.01

HSPBP1 (UniProt K7EMM7)
inactive: [4] 0.1

INAFM2 (UniProt P0DMQ5)
inactive: [9] -0.015 | [4] 0.016 | [10] -0.028

HTRA3 (UniProt P83110)
inactive: [3] -1.14 | [5] -0.052 | [8] 0.322

INPP5E (UniProt Q9NRR6)
inactive: [9] -0.085 | [3] -0.033 | [5] 0.105 | [10] -0.12 | [8] 0.243

IGHV3-72, A0A4W8ZXM2
inactive: [3] 0.109 | [5] -0.053 | [8] 0.409

IFT88 (UniProt Q13099)
inactive: [9] -0.031 | [10] 0.448

IFT22 (UniProt Q9H7X7)
inactive: [2] -0.195 | [4] 0.024 | [6] -0.201 | [7] -0.144

ING2 (UniProt Q9H160)
inactive: [9] 0.006 | [6] -0.124 | [10] -0.025

INPP5A (UniProt Q14642)
inactive: [2] -0.089 | [3] -0.289 | [4] -0.041 | [5] 0.025 | [6] -0.197 | [7] -0.131 | [8] 0.115

INCENP (UniProt Q9NQS7)
inactive: [4] 0.083

ICOSLG isoform 2 (UniProt O75144)
inactive: [2] -0.024 | [7] -0.281

IGKV3-20 (UniProt P01619)
inactive: [3] 0.235 | [4] 0.209 | [5] -0.09 | [8] 0.44

IGSF1 isoform 4 (UniProt Q8N6C5)
inactive: [3] -0.012 | [5] 0.034 | [6] 0.149 | [8] 0.095

INHBE (UniProt P58166)
inactive: [9] 0.021 | [3] -0.004 | [5] -0.123 | [10] -0.077 | [8] 0.072

IGHA2 (UniProt P01877)
inactive: [3] 0.334 | [5] -0.443 | [8] -0.133

IL13RA1 (UniProt P78552)
inactive: [9] 0.034 | [3] -0.01 | [5] 0.039 | [10] -0.016 | [8] 0.071

IDUA (UniProt P35475)
inactive: [9] -0.125 | [3] 0.014 | [5] 0.021 | [10] -0.155 | [8] 0.056

INO80B (UniProt Q9C086)
inactive: [4] 0.087

IGKV1D-33, A0A2Q2TTZ9
inactive: [3] 0.275 | [5] -0.178 | [8] 0.41

IFT52 (UniProt Q9Y366)
inactive: [9] 0.084 | [10] -0.072

IGHM isoform 2 (UniProt P01871)
inactive: [3] 0.078 | [4] 0.268 | [5] -0.048 | [8] 0.635

IFNAR1 (UniProt P17181)
inactive: [9] -0.06 | [3] 0.027 | [4] 0.093 | [5] -0.02 | [10] 0.074 | [8] -0.095

IL6ST (UniProt P40189)
inactive: [3] 0.397 | [5] -0.342 | [8] -0.348

IGKV3D-7, A0A0C4DH55
inactive: [3] 0.234 | [5] 0.141 | [8] 0.459

HTR1F (UniProt P30939)
inactive: [2] -0.017 | [7] -0.029

IFT172 (UniProt Q9UG01)
inactive: [4] -0.1

IFT122 isoform 5 (UniProt Q9HBG6)
inactive: [9] 0.149 | [4] -0.257 | [10] 0.171

HUWE1 (UniProt H0Y659)
inactive: [4] 0.02

HTN3 (UniProt P15516)
inactive: [3] 0.002 | [5] -0.001 | [8] 0.403

ICAM4 isoform 3 (UniProt Q14773)
inactive: [2] -0.062 | [3] -0.003 | [4] 0.039 | [5] -0.013 | [6] -0.001 | [7] 0.004 | [8] 0.037
